Cleaved PARP in drug-treated melanoma cells

Values as published with doi:10.1371/journal.pone.0140310, rounded.

All values are for the listed drug together with Src-I1 (10 µM): COc1cc2ncnc(Nc3ccc(Oc4ccccc4)cc3)c2cc1OC

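Human melanoma cells were exposed to two drugs together for 72 h in 1,536-well plates and read by automated microscopy after fixing and staining. Values are the share of nuclei positive for cleaved PARP as a percentage of the same share in the DMSO control: 100 is the control level, higher means more apoptosis. Every drug was used at one fixed concentration, the higher of two screened. No replicate spread is given; individual values may be noisy. The marker varies much from line to line, for technical or biological reasons.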
An unselected part of the screen is shown.
An entry leaves out what has no value listed here.
A dash means that no value is listed here.

With O=c1cc(-c2cccc3c2Sc2ccccc2S3)oc(N2CCOCC2)c1 at 5 µM the screen read RVH-421: 66.1; UACC-62: 239; SK-MEL-2: 69.8; 501mel: 163; WM1716: 162; IPC-298: 126; WM3619: 238; SK-MEL-5: 86.9.
With CS(=O)(=O)CCNCc1ccc(-c2ccc3ncnc(Nc4ccc(OCc5cccc(F)c5)c(Cl)c4)c3c2)o1 at 4 µM the screen read RVH-421: 208; UACC-62: 463; SK-MEL-2: 93.5; 501mel: 136; WM1716: 123; IPC-298: 75.6; WM3619: 228; SK-MEL-5: 694.
With COc1cc([C@@H]2c3cc4c(cc3[C@@H](O[C@@H]3O[C@@H]5CO[C@@H](C)O[C@H]5[C@H](O)[C@H]3O)[C@H]3COC(=O)[C@H]23)OCO4)cc(OC)c1O at 0.1 µM the screen read RVH-421: 177; UACC-62: 171; SK-MEL-2: 199; 501mel: 146; WM1716: 153; IPC-298: 146; WM3619: 116; SK-MEL-5: 271.
With Cc1cc([N+](=O)[O-])ccc1NS(=O)(=O)c1cc(Cl)ccc1Cl at 5 µM the screen read RVH-421: 343; UACC-62: 670; SK-MEL-2: 47.8; 501mel: 192; WM1716: 48.0; IPC-298: 102; WM3619: 187; SK-MEL-5: 872.
With C#Cc1cccc(Nc2ncnc3cc(OCCOC)c(OCCOC)cc23)c1 at 4 µM the screen read RVH-421: 249; UACC-62: 427; SK-MEL-2: 82.2; 501mel: 99.6; WM1716: 105; IPC-298: 156; WM3619: 138; SK-MEL-5: 103.
With COc1cc2c(Oc3ccc4[nH]c(C)cc4c3F)ncnc2cc1OCCCN1CCCC1 at 2 µM the screen read RVH-421: 106; UACC-62: 109; SK-MEL-2: 312; 501mel: 136; WM1716: 79.1; IPC-298: 231; WM3619: 270; SK-MEL-5: 147.
With C[C@]1(O)C[C@@H](c2nc(-c3ccc4ccc(-c5ccccc5)nc4c3)c3c(N)nccn32)C1 at 2 µM the screen read RVH-421: 173; UACC-62: 274; SK-MEL-2: 180; 501mel: 145; WM1716: 25.4; IPC-298: 144; WM3619: 137; SK-MEL-5: 210.
With Clc1ccc(Nc2nnc(Cc3ccncc3)c3ccccc23)cc1 at 10 µM the screen read RVH-421: 111; UACC-62: 400; SK-MEL-2: 59.0; 501mel: 92.3; WM1716: 85.0; IPC-298: 105; WM3619: 246; SK-MEL-5: 237.
With O=c1[nH]nc(Sc2ncc([N+](=O)[O-])s2)n1-c1ccc2c(c1)OCCO2 at 1 µM the screen read RVH-421: 133; UACC-62: 227; SK-MEL-2: 97.2; 501mel: 124; WM1716: 58.3; IPC-298: 98.1; WM3619: 121; SK-MEL-5: 512.
With c1cc(-c2cnn3cc(-c4ccc(OCCN5CCCCC5)cc4)cnc23)ccn1 at 2 µM the screen read RVH-421: 106; UACC-62: 562; SK-MEL-2: 19.0; 501mel: 212; WM1716: 79.5; IPC-298: 120; WM3619: 169; SK-MEL-5: 300.
With Cc1cc(SCc2sc(-c3ccc(C(F)(F)F)c(F)c3)nc2C)ccc1OCC(=O)O at 10 µM the screen read RVH-421: 40.2; UACC-62: 237; SK-MEL-2: 114; WM1716: 57.1; IPC-298: 77.1; WM3619: 137; SK-MEL-5: 150.
With OCCn1cc(-c2cnc3nnn(Cc4ccc5ncccc5c4)c3n2)cn1 at 5 µM the screen read RVH-421: 145; UACC-62: 136; SK-MEL-2: 34.0; 501mel: 55.3; WM1716: 123; IPC-298: 55.2; WM3619: 152; SK-MEL-5: 200.
With CNC(=O)c1cc(Oc2ccc(NC(=O)Nc3ccc(Cl)c(C(F)(F)F)c3)cc2)ccn1 at 2 µM the screen read RVH-421: 77.8; UACC-62: 296; SK-MEL-2: 188; 501mel: 445; WM1716: 94.0; IPC-298: 50.6; WM3619: 175; SK-MEL-5: 78.1.
With C[C@]12O[C@H](C[C@]1(O)CO)n1c3ccccc3c3c4c(c5c6ccccc6n2c5c31)CNC4=O at 0.02 µM the screen read RVH-421: 184; UACC-62: 466; SK-MEL-2: 103; 501mel: 399; WM1716: 83.8; IPC-298: 203; WM3619: 136; SK-MEL-5: 360.
With COc1cc(Nc2ncc(F)c(Nc3ccc4c(n3)NC(=O)C(C)(C)O4)n2)cc(OC)c1OC at 2 µM the screen read RVH-421: 178; UACC-62: 709; SK-MEL-2: 156; 501mel: 144; WM1716: 280; IPC-298: 60.5; WM3619: 180; SK-MEL-5: 443.
With CN(c1ncccc1CNc1nc(Nc2ccc3c(c2)CC(=O)N3)ncc1C(F)(F)F)S(C)(=O)=O at 0.4 µM the screen read RVH-421: 187; UACC-62: 197; SK-MEL-2: 25.3; 501mel: 110; WM1716: 129; IPC-298: 96.3; WM3619: 278; SK-MEL-5: 516.
With O=C(Nc1ccccc1)c1cc([N+](=O)[O-])ccc1Cl at 10 µM the screen read RVH-421: 109; UACC-62: 227; SK-MEL-2: 73.5; 501mel: 168; WM1716: 37.8; IPC-298: 30.7; WM3619: 144; SK-MEL-5: 277.
With O=C(/C=C/c1cccnc1)NCCCCC1CCN(C(=O)c2ccccc2)CC1 at 0.05 µM the screen read RVH-421: 204; UACC-62: 200; SK-MEL-2: 1420; 501mel: 60.1; WM1716: 27.7; IPC-298: 272; WM3619: 433; SK-MEL-5: 438.
With CC(C)(C)c1cnc(CSc2cnc(NC(=O)C3CCNCC3)s2)o1 at 0.05 µM the screen read RVH-421: 176; UACC-62: 783; SK-MEL-2: 466; WM1716: 215; IPC-298: 74.5; WM3619: 220; SK-MEL-5: 189.
With Cn1cc(/C=C2\C(=O)Nc3cccnc32)c2ccccc21 at 2 µM the screen read RVH-421: 56.6; UACC-62: 469; SK-MEL-2: 44.9; 501mel: 62.3; WM1716: 86.3; IPC-298: 65.7; WM3619: 247; SK-MEL-5: 76.6.
With COCC[n+]1c2c(n(Cc3cnccn3)c1C)C(=O)c1ccccc1C2=O at 0.002 µM the screen read RVH-421: 99.9; UACC-62: 185; SK-MEL-2: 396; 501mel: 198; WM1716: 325; IPC-298: 175; WM3619: 286; SK-MEL-5: 6260.
With CCCS(=O)(=O)Nc1ccc(F)c(C(=O)c2c[nH]c3ncc(Cl)cc23)c1F at 0.4 µM the screen read RVH-421: 106; UACC-62: 361; SK-MEL-2: 46.0; 501mel: 90.7; WM1716: 146; IPC-298: 59.2; WM3619: 228; SK-MEL-5: 141.
With C[C@]1(c2nc3c(C(N)=O)cccc3[nH]2)CCCN1 at 7 µM the screen read RVH-421: 91.1; UACC-62: 54.7; SK-MEL-2: 117; 501mel: 250; WM1716: 58.0; IPC-298: 43.9; WM3619: 93.0; SK-MEL-5: 73.9.
With CCCCCCCCCCCC1=C(O)C(=O)C=C(O)C1=O at 6 µM the screen read RVH-421: 67.6; UACC-62: 9.3; SK-MEL-2: 26.2; 501mel: 116; WM1716: 22.0; IPC-298: 52.0; WM3619: 105; SK-MEL-5: 88.5.
With COc1ccc(-c2ccc3c(N4CCOCC4)nc(N4C[C@@H](C)O[C@@H](C)C4)nc3n2)cc1CO at 0.1 µM the screen read RVH-421: 115; UACC-62: 431; SK-MEL-2: 146; 501mel: 150; WM1716: 309; IPC-298: 193; WM3619: 226; SK-MEL-5: 659.
With CC(=O)c1c(C)c2cnc(Nc3ccc(N4CCNCC4)cn3)nc2n(C2CCCC2)c1=O at 0.2 µM the screen read RVH-421: 57.5; UACC-62: 150; SK-MEL-2: 147; 501mel: 160; WM1716: 158; IPC-298: 69.0; WM3619: 144; SK-MEL-5: 239.
With CC1(C)NC(=O)N(c2ccc([N+](=O)[O-])c(C(F)(F)F)c2)C1=O at 5 µM the screen read RVH-421: 73.7; UACC-62: 276; SK-MEL-2: 64.2; 501mel: 102; WM1716: 92.6; IPC-298: 42.4; WM3619: 121; SK-MEL-5: 390.
With Cc1ccc(NC(=O)c2cccc(N(C)C)c2)cc1NC(=O)c1ccc(O)cc1 at 10 µM the screen read RVH-421: 119; UACC-62: 399; SK-MEL-2: 92.6; 501mel: 294; WM1716: 128; IPC-298: 51.9; WM3619: 142; SK-MEL-5: 174.
With Oc1nc(-c2ccc(C(F)(F)F)cc2)nc2c1CSCC2 at 10 µM the screen read RVH-421: 169; UACC-62: 493; SK-MEL-2: 96.5; 501mel: 274; WM1716: 140; IPC-298: 52.6; WM3619: 246; SK-MEL-5: 172.
With C[As](C)SC[C@H](NC(=O)CC[C@H](N)C(=O)O)C(=O)NCC(=O)O at 2 µM the screen read RVH-421: 114; UACC-62: 235; SK-MEL-2: 88.6; 501mel: 215; WM1716: 67.6; IPC-298: 49.3; WM3619: 129; SK-MEL-5: 160.
With C[C@@H](Oc1cc(-c2cnn(C3CCNCC3)c2)cnc1N)c1c(Cl)ccc(F)c1Cl at 1 µM the screen read RVH-421: 86.1; UACC-62: 247; SK-MEL-2: 82.5; 501mel: 179; WM1716: 25.9; IPC-298: 135; WM3619: 107; SK-MEL-5: 169.
With CN1CCN(c2ccc3nc(-c4c(N)c5c(F)cccc5[nH]c4=O)[nH]c3c2)CC1 at 0.5 µM the screen read RVH-421: 82.6; UACC-62: 239; SK-MEL-2: 74.0; 501mel: 72.5; WM1716: 200; IPC-298: 71.1; WM3619: 107; SK-MEL-5: 153.
With Cc1nc(Nc2ncc(C(=O)Nc3c(C)cccc3Cl)s2)cc(N2CCN(CCO)CC2)n1 at 0.02 µM the screen read RVH-421: 112; UACC-62: 257; SK-MEL-2: 31.7; 501mel: 135; WM1716: 362; IPC-298: 70.0; WM3619: 417; SK-MEL-5: 112.
With CO[C@@H]1[C@H](N(C)C(=O)c2ccccc2)C[C@H]2O[C@]1(C)n1c3ccccc3c3c4c(c5c6ccccc6n2c5c31)C(=O)NC4 at 0.4 µM the screen read RVH-421: 64.7; UACC-62: 375; SK-MEL-2: 180; 501mel: 54.8; WM1716: 171; IPC-298: 241; WM3619: 190; SK-MEL-5: 343.
With O=C(O)c1ccc2c(c1)nc(Nc1cccc(Cl)c1)c1ccncc12 at 2 µM the screen read RVH-421: 64.2; UACC-62: 698; SK-MEL-2: 192; 501mel: 100; WM1716: 76.7; IPC-298: 150; WM3619: 127; SK-MEL-5: 468.
With C=CCNC1=C2C[C@@H](C)C[C@H](OC)[C@H](O)[C@@H](C)/C=C(\C)[C@H](OC(N)=O)[C@@H](OC)/C=C\C=C(/C)C(=O)NC(=CC1=O)C2=O at 0.01 µM the screen read RVH-421: 85.6; UACC-62: 434; SK-MEL-2: 68.5; 501mel: 294; WM1716: 54.7; IPC-298: 162; WM3619: 134; SK-MEL-5: 158.
With N#CC[C@H](C1CCCC1)n1cc(-c2ncnc3[nH]ccc23)cn1 at 5 µM the screen read RVH-421: 107; UACC-62: 216; SK-MEL-2: 94.9; 501mel: 167; WM1716: 114; IPC-298: 203; WM3619: 142; SK-MEL-5: 376.

3 of the entries, repeated:

| Partner | RVH-421 | UACC-62 | SK-MEL-2 | 501mel | WM1716 | IPC-298 | WM3619 | SK-MEL-5 |
|---|---|---|---|---|---|---|---|---|
| Cc1nc(Nc2ncc(C(=O)Nc3c(C)cccc3Cl)s2)cc(N2CCN(CCO)CC2)n1 at 0.02 µM | 112 | 257 | 31.7 | 135 | 362 | 70.0 | 417 | 112 |
| CC(C)(C)c1cnc(CSc2cnc(NC(=O)C3CCNCC3)s2)o1 at 0.05 µM | 176 | 783 | 466 | - | 215 | 74.5 | 220 | 189 |
| CN1CCN(c2ccc3nc(-c4c(N)c5c(F)cccc5[nH]c4=O)[nH]c3c2)CC1 at 0.5 µM | 82.6 | 239 | 74.0 | 72.5 | 200 | 71.1 | 107 | 153 |